Experimental data: PubChem BioAssay AID1259279 (Sanger Institute, 2017)

- Aim: 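Find kinases whose loss works with colorectal cancer drugs to kill cells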 (primary screen)
- Cells: LS180 human colorectal cancer cells
- Reagent: siRNA pool against human genes
- Conditions: anchor drug BYL719 at 1 µM, cetuximab at 5 µg/ml or trametinib at 10 nM, or DMSO vehicle only
- Detection: 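Viability as a fraction of non-targeting control and as a replicate-averaged robust z-score, with separate synergy scores for BYL719, cetuximab and trametinib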
- Scale: viability z-score, no drug: higher = more viable cells after knock-down
- Rule for the call: 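a knock-down is called active, meaning essential, if its viability z-score in vehicle alone falls below -3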
- Meaning of the calls: active = essential (knock-down alone cuts viability); inactive = no change without drug
Shown is one part, drawn at random, of 794 reagents tested. 11 of all reagents (1.4%) count as active. 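Calls reflect knock-down alone in the vehicle arm, not drug synergy.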 Not all columns of the deposit are shown. No sequences are given here. The record does not give: the amount of reagent, the time to read-out.

gene knocked down | viability z-score, no drug | call
CDK5R1 (cyclin dependent kinase 5 regulatory subunit 1) | -0.385 | inactive
RET (ret proto-oncogene) | 0.452 | inactive
FN3KRP (fructosamine 3 kinase related protein) | -1.97 | inactive
PRKAR2A | -0.413 | inactive
MAPKAPK3 (MAPK activated protein kinase 3) | -1.3 | inactive
WNK1 (WNK lysine deficient protein kinase 1) | 0.86 | inactive
TK2 (thymidine kinase 2) | 0.673 | inactive
TTBK2 (tau tubulin kinase 2) | -1.31 | inactive
PEAK1 (pseudopodium enriched atypical kinase 1) | -0.416 | inactive
PKN1 (protein kinase N1) | 0.86 | inactive
PTK2B (protein tyrosine kinase 2 beta) | 0.0786 | inactive
GRK5 (G protein-coupled receptor kinase 5) | 0.86 | inactive
MAPK11 (mitogen-activated protein kinase 11) | 0.26 | inactive
CAMKK1 (calcium/calmodulin dependent protein kinase kinase 1) | 0.446 | inactive
PIM2 (Pim-2 proto-oncogene, serine/threonine kinase) | -1.13 | inactive
POMK (protein O-mannose kinase) | 0.619 | inactive
TJP2 (tight junction protein 2) | 0.86 | inactive
PAPSS1 (3'-phosphoadenosine 5'-phosphosulfate synthase 1) | -0.0171 | inactive
SF3B1 (splicing factor 3b subunit 1) | -3.61 | active
PRKCSH (PRKCSH beta subunit of glucosidase II) | 0.215 | inactive
MARK1 (microtubule affinity regulating kinase 1) | -0.503 | inactive
MAP3K14 (mitogen-activated protein kinase kinase kinase 14) | -1.13 | inactive
STK17A (serine/threonine kinase 17a) | -1.11 | inactive
CDK11A (cyclin dependent kinase 11A) | -1.41 | inactive
STK26 (serine/threonine kinase 26) | 0.86 | inactive
PFKFB2 (6-phosphofructo-2-kinase/fructose-2,6-biphosphatase 2) | 0.812 | inactive
CDKL2 (cyclin dependent kinase like 2) | 0.672 | inactive
EPHA2 (EPH receptor A2) | 0.86 | inactive
RIPK4 (receptor interacting serine/threonine kinase 4) | 0.86 | inactive
NUAK1 (NUAK family kinase 1) | 0.11 | inactive
HCK (HCK proto-oncogene, Src family tyrosine kinase) | 0.754 | inactive
TRIB1 (tribbles pseudokinase 1) | 0.00907 | inactive
SGK1 (serum/glucocorticoid regulated kinase 1) | 0.139 | inactive
IGF1R (insulin like growth factor 1 receptor) | 0.172 | inactive
CDC42BPA (CDC42 binding protein kinase alpha) | -1.1 | inactive
CAD | 0.86 | inactive
MOS (MOS proto-oncogene, serine/threonine kinase) | 0.265 | inactive
PRKAG2 (protein kinase AMP-activated non-catalytic subunit gamma 2) | 0.86 | inactive
PTEN (phosphatase and tensin homolog) | 0.668 | inactive
MPP2 (MAGUK p55 scaffold protein 2) | 0.257 | inactive
GAK (cyclin G associated kinase) | 0.86 | inactive
MAPK10 (mitogen-activated protein kinase 10) | 0.86 | inactive
CDK19 (cyclin dependent kinase 19) | -0.384 | inactive
ERBB4 (erb-b2 receptor tyrosine kinase 4) | 0.621 | inactive
MVK (mevalonate kinase) | 0.86 | inactive
SNRK (SNF related kinase) | 0.561 | inactive
GTF2H1 (general transcription factor IIH subunit 1) | -0.845 | inactive
MAGI1 | -1.32 | inactive
PIK3R2 (phosphoinositide-3-kinase regulatory subunit 2) | 0.86 | inactive
PSKH1 (protein serine kinase H1) | -0.492 | inactive
